# Test results reported in the supplement of paper PMC7752906.
# Where a name gives a salt, the structure may show the parent alone. The list shows a part of the results. Single values are uncertain here, since repeats match poorly.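 Test system: Schistosoma mansoni schistosomula, roughly 40 per well, imaged in bright field over time and compared with wells given 0.1% DMSO. Distance read-out: the paper calls a drug a hit when its Mahalanobis distance is at least 2.47, three standard deviations above the DMSO control mean. Degeneracy is the share of worms classified opaque.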
# Tested on: Schistosoma mansoni schistosomula
# Assay: Mahalanobis distance of static-rate-frequency phenotype descriptors from DMSO controls (dimensionless); higher = stronger phenotypic change versus DMSO
# Settings: 10 µM; 72 h
row,SMILES,Mahalanobis distance
1,O=c1[nH]cnc2c1ncn2[C@@H]1O[C@H](CO)[C@@H](O)[C@H]1O [Inosine],inactive: 1.27
2,CCOc1ccccc1OC(c1ccccc1)C1CNCCO1 (stereo not given) [Reboxetine Mesylate],active: 2.84
3,O=c1ccc2ccccc2o1 [Coumarin],inactive: 1.97
4,O=c1[nH]c(=O)c2ccccc2o1 [Carsalam],inactive: 1.97
5,Nc1ccn([C@@H]2O[C@H](CO)[C@@H](O)[C@@H]2O)c(=O)n1 [Cytarabine],inactive: 2.06
6,Nc1ccc(S(=O)(=O)Nc2ccccn2)cc1 [Sulfapyridine],inactive: 1.93
7,CO[C@H]1C[C@H](O[C@H]2[C@H](C)[C@@H](O[C@@H]3O[C@H](C)C[C@H](N(C)C)[C@H]3O)[C@@H](C)C[C@@]3(CO3)C(=O)[C@H](C)[C@@H](O)[C@@H](C)[C@@H](C)OC(=O)[C@@H]2C)O[C@@H](C)[C@@H]1O [Oleandomycin Phosphate],inactive: 2.04
8,CCN(CC)CCOC(=O)C(c1ccccc1)c1ccccc1 [Adiphenine Hydrochloride],active: 3.03
9,OC(CCCN1CCCCC1)(c1ccccc1)c1ccccc1 [Diphenidol],active: 2.52
10,CCOC(=O)c1ccc(N)cc1 [Benzocaine],inactive: 1.48
11,CC(C)(C)CC(C)(C)c1ccc(O)c(Cc2ccc(Cl)cc2Cl)c1 [clofoctol],inactive: 1.82
12,Cc1ccc(S(=O)(=O)NC(=O)NN2CCCCCC2)cc1 [Tolazamide],inactive: 1.77
13,C[C@]12CC[C@@H]3c4ccc(OS(=O)(=O)O)cc4CC[C@H]3[C@@H]1CCC2=O [Estropipate],inactive: 1.62
14,C[N+](C)(C)CCOC(=O)CCC(=O)OCC[N+](C)(C)C [Succinylcholine Chloride],inactive: 1.63
15,CN(C)c1ccc(O)c2c1C[C@H]1C[C@H]3[C@H](N(C)C)C(O)=C(C(N)=O)C(=O)[C@@]3(O)C(O)=C1C2=O [Minocycline Hydrochloride],inactive: 1.92
16,Cc1ccsc1/C=C/C1=NCCCN1C [Morantel Citrate],active: 2.51
17,CCCCCCCCCCCCCCCCOP(=O)([O-])OCC[N+](C)(C)C [Miltefosine],inactive: 2.19
18,CN(Cc1cnc2nc(N)nc(N)c2n1)c1ccc(C(=O)N[C@@H](CCC(=O)O)C(=O)O)cc1 [Methotrexate],inactive: 1.95
19,N[C@@H](Cc1ccc(O)cc1)C(=O)O [Tyrosine],inactive: 1.37
20,CCN(CC)CCNc1ccc(CO)c2sc3ccccc3c(=O)c12 [hycanthone],inactive: 1.83
21,CSc1ccc2c(c1)N(CCC1CCCCN1C)c1ccccc1S2 (stereo not given) [thioridazine],active: 3.32
22,CC1=C(/C=C/C(C)=C/C=C/C(C)=C\C(=O)O)C(C)(C)CCC1 [Isotretinoin],inactive: 1.97
23,CC/C(=C(/CC)c1ccc(O)cc1)c1ccc(O)cc1 [Diethylstilbestrol],inactive: 1.89

# 3 records drawn at random from those above, as already listed:
row,SMILES,Mahalanobis distance
16,Cc1ccsc1/C=C/C1=NCCCN1C [Morantel Citrate],active: 2.51
4,O=c1[nH]c(=O)c2ccccc2o1 [Carsalam],inactive: 1.97
3,O=c1ccc2ccccc2o1 [Coumarin],inactive: 1.97

# Continued.

row,SMILES,Mahalanobis distance
1,CCCCC1(COC(=O)CCC(=O)O)C(=O)N(c2ccccc2)N(c2ccccc2)C1=O [Suxibuzone],inactive: 1.55
2,COc1cc(NC(C)CCCN)c2ncccc2c1 (stereo not given) [primaquine],active: 3.25
3,CC(=O)OCC(=O)[C@@]1(OC(C)=O)[C@@H](C)C[C@H]2[C@@H]3C[C@H](F)C4=CC(=O)C=C[C@]4(C)[C@@]3(F)[C@@H](O)C[C@@]21C [Diflorasone Diacetate],active: 3.16
4,C[C@]1(Cn2ccnn2)[C@H](C(=O)O)N2C(=O)C[C@H]2S1(=O)=O [Tazobactam],active: 2.81
5,CCN(CC)CCOCCOC(=O)C(CC)(CC)c1ccccc1 [Oxelaidin Citrate],inactive: 2
6,CC(CN(C)C)CN1c2ccccc2Sc2ccccc21 (stereo not given) [Trimeprazine Tartrate],inactive: 1.72
7,CC(=O)OCC(=O)[C@H]1CC[C@H]2[C@@H]3CCC4=CC(=O)CC[C@]4(C)[C@H]3CC[C@]12C [Desoxycorticosterone Acetate],active: 2.57
8,C=CCOC(Cn1ccnc1)c1ccc(Cl)cc1Cl (stereo not given) [Enilconazole],inactive: 1.48
9,CN(C)CC/C=C1/c2ccccc2COc2ccc(CC(=O)O)cc21 [Olopatadine Hcl],inactive: 2.36
10,COc1cc(/C=C/C(=O)N2CCCCCCC2)cc(OC)c1OC [Cinoctramide],inactive: 2.04
11,c1ccc(CN(CC2=NCCN2)c2ccccc2)cc1 [Antazoline],active: 3.06
12,CC(=O)N(CC(O)CN(C(C)=O)c1c(I)c(C(=O)NCC(O)CO)c(I)c(C(=O)NCC(O)CO)c1I)c1c(I)c(C(=O)NCC(O)CO)c(I)c(C(=O)NCC(O)CO)c1I (stereo not given) [Iodixanol],inactive: 1.53
13,NC(=O)NS(=O)(=O)c1ccc(N)cc1 [Sulfacarbamide],inactive: 1.91
14,C=CCSCC1Nc2cc(Cl)c(S(N)(=O)=O)cc2S(=O)(=O)N1 (stereo not given) [Althiazide],inactive: 1.53
15,CC(C)(O)c1ccccc1CC[C@@H](SCC1(CC(=O)O)CC1)c1cccc(/C=C/c2ccc3ccc(Cl)cc3n2)c1 [montelukast],inactive: 1.59
16,CC(C)(O)c1ccccc1CC[C@@H](SCC1(CC(=O)O)CC1)c1cccc(/C=C/c2ccc3ccc(Cl)cc3n2)c1 [Montelukast Sodium],inactive: 2.39
17,CCN[C@@H]1C[C@H](N)[C@@H](O[C@H]2OC(CN)=CC[C@H]2N)[C@H](O)[C@H]1O[C@H]1OC[C@](C)(O)[C@H](NC)[C@H]1O [Netilmicin Sulfate],inactive: 1.46
18,CC(=O)Oc1cccc(C)c1 [Meta-cresyl Acetate],inactive: 1.55
19,CN(C)CC(c1ccc(O)cc1)C1(O)CCCCC1 (stereo not given) [Desvenlafaxine Succinate],inactive: 2.47
20,NC(=O)[C@@H]1CCCN1C(=O)[C@H](Cc1c[nH]cn1)NC(=O)[C@@H]1CCC(=O)N1 [Protirelin],active: 2.88
21,OCc1ccccc1O [Salicyl Alcohol],inactive: 1.84
22,COc1c(N2CCNC(C)C2)c(F)cc2c(=O)c(C(=O)O)cn(C3CC3)c12 (stereo not given) [Gatifloxacin],inactive: 2.29
